The list is a part of this screen's results and no random one: it gathers tests that were run many times, whatever their T/C, doses with no T/C, and many T/C values between a quarter and a half above the control. Other doses and runs of a compound stand elsewhere. T/C gives the treated animals as a percentage of the vehicle group. Some doses have a count of surviving animals in place of a T/C: the source files T/C as zero there, which appears to mark a toxic dose or a test without result, not a measured value. Some survivor counts are full or nearly so, which does not show that the dose was tolerated: survival well below the control is almost never listed, so the zero probably covers shortened survival too. Survivors were counted at the toxicity check, usually on the fifth day, unless a day is given; later deaths do not show. Schedules are NCI's codes, read here as Q, the interval in days (D) or hours (H), X, the number of doses. Some structures stand for samples that the source files as different forms (salt, stereo form or complex); doses refer to the form tested. Some entries were tested several times; their values stand side by side, smallest first. Marks such as (2×) count equal records among those shown. For survival time, the PubChem record calls one and a half times the control and up active, and a quarter to a half above the control has no call in these data; cut-offs in other NCI protocols can differ.

This note sets out measurements from PubChem BioAssay AID248 (DTP/NCI, 2004).

In the experiment the test system is L1210 leukemia ip in BDF1 mice, survival T/C. The experiment in a line: NCI In Vivo Anticancer Drug Screen. Data for tumor model L1210 Leukemia (intraperitoneal) in B6D2F1 (BDF1) mice. The following applies: T/C endpoint: mean survival time, higher T/C = longer survival.
Setting [1] is: dose: 50.0 mg/kg/injection, schedule: Q01DX009 (ip), vehicle: Klucel (hydroxypropylcellulose) (HPC).
[2] abbreviates: dose: 100.0 mg/kg/injection, schedule: Q01DX009 (ip), vehicle: Klucel (hydroxypropylcellulose) (HPC).
[3] abbreviates: dose: 200.0 mg/kg/injection, schedule: Q01DX009 (ip), vehicle: Klucel (hydroxypropylcellulose) (HPC).
Where [4] appears, read: dose: 400.0 mg/kg/injection, schedule: Q01DX009 (ip), vehicle: Klucel (hydroxypropylcellulose) (HPC).
The mark [5] stands for this setting: dose: 400.0 mg/kg/injection, schedule: Q01DX009 (ip), vehicle: saline.
Setting [6] is: dose: 400.0 mg/kg/injection, schedule: Q04DX003 (ip), vehicle: saline.
The mark [7] stands for this setting: dose: 100.0 mg/kg/injection, schedule: Q01DX001 (ip), vehicle: saline.
Setting [8] is: dose: 200.0 mg/kg/injection, schedule: Q01DX001 (ip), vehicle: saline.
Setting [9] is: dose: 200.0 mg/kg/injection, schedule: Q04DX003 (ip), vehicle: saline.
Where [10] appears, read: dose: 400.0 mg/kg/injection, schedule: Q01DX001 (ip), vehicle: saline.
Where [11] appears, read: dose: 400.0 mg/kg/injection, schedule: Q01DX009 (ip), vehicle: saline with Tween-80.
The mark [12] stands for this setting: dose: 100.0 mg/kg/injection, schedule: Q01DX009 (ip), vehicle: saline with Tween-80.
Setting [13] is: dose: 200.0 mg/kg/injection, schedule: Q01DX009 (ip), vehicle: saline with Tween-80.
Setting [14] is: dose: 200.0 mg/kg/injection, schedule: Q01DX009 (ip), vehicle: saline.
The mark [15] stands for this setting: dose: 400.0 mg/kg/injection, schedule: Q04DX003 (ip), vehicle: saline with Tween-80.
Setting [16] is: dose: 100.0 mg/kg/injection, schedule: Q01DX009 (ip), vehicle: saline.

`Clc1c(Cl)c([O][Sn]([c]2ccccc2)([c]2ccccc2)[c]2ccccc2)c(Cl)c(Cl)c1[O][Sn]([c]1ccccc1)([c]1ccccc1)[c]1ccccc1`: the survivor count (dose: 1.56 mg/kg/injection, schedule: Q01DX009 (ip), vehicle: Klucel (hydroxypropylcellulose) (HPC)) is recorded as 3 of 3; the survivor count (dose: 6.25 mg/kg/injection, schedule: Q01DX009 (ip), vehicle: Klucel (hydroxypropylcellulose) (HPC)) is listed as 0 of 3; the survivor count (dose: 12.5 mg/kg/injection, schedule: Q01DX009 (ip), vehicle: Klucel (hydroxypropylcellulose) (HPC)) is given as 1 of 3; the survivor count (dose: 25.0 mg/kg/injection, schedule: Q01DX009 (ip), vehicle: Klucel (hydroxypropylcellulose) (HPC)) is 0 of 3; the survivor count under setting [1] is listed as 0 of 3; the survivor count under setting [2] was 0 of 3 and 0 of 6. The survivor count was 0 of 6 under setting [3] and 0 of 6 under setting [4].
As to `N#CCc1ccc(C(=O)O)cc1`, the survivor count (dose: 400.0 mg/kg/injection, schedule: Q01DX001 (ip), vehicle: carboxymethylcellulose (CMC)) is on record as 1 of 4.
Regarding `N#CN1CCOCC1`, the survivor count under setting [5] is 0 of 6 and the survivor count under setting [6] is reported as 0 of 6.
Turning to `CC[N+](CC)(CC)Cc1ccccc1`, the survivor count is 3 of 6 under setting [1]; 0 of 6, 1 of 6, 2 of 6 (2×) under setting [7]; 0 of 6 under setting [2]; 0 of 6, 1 of 6, 5 of 6 (dose: 100.0 mg/kg/injection, schedule: Q04DX003 (ip), vehicle: saline); 0 of 6 (2×) under setting [8]; 0 of 6 under setting [3]. The survivor count reads like this: under setting [9], 0 of 6 (2×); under setting [10], 0 of 6 (2×); under setting [4], 0 of 6; under setting [6], 0 of 6 and 2 of 6.
Regarding `COc1ccc(NC(=O)Nc2ccc(NC(C)=O)cc2)cc1`, the survivor count under setting [11] was 6 of 6.
In the case of `ClC12CC3CC(CC(C3)C1)C2`, the survivor count (dose: 100.0 mg/kg/injection, schedule: Q01DX009 (ip), vehicle: acetone) is 6 of 6 and the survivor count (dose: 400.0 mg/kg/injection, schedule: Q01DX009 (ip), vehicle: acetone) is recorded as 6 of 6.
`CC(C/C=N/N1CCCCC1)Nc1ccnc2cc(Cl)ccc12` (stereo unspecified): the survivor count reads like this: (dose: 6.25 mg/kg/injection, schedule: Q01DX009 (ip), vehicle: saline with Tween-80) 6 of 6; (dose: 12.5 mg/kg/injection, schedule: Q01DX009 (ip), vehicle: saline with Tween-80) 0 of 6; (dose: 25.0 mg/kg/injection, schedule: Q01DX009 (ip), vehicle: saline with Tween-80) 0 of 6; under setting [12], 0 of 6; under setting [13], 0 of 6; under setting [11], 0 of 6.
Regarding `C=CCOCC(O)CN(C)C1CCCCC1` (stereo unspecified), the survivor count runs as follows: under setting [14], 0 of 6; under setting [9], 0 of 6; under setting [6], 0 of 6.
Regarding `CC(Cc1ccccc1)NC(=O)CCNNC(=O)c1ccncc1` (stereo unspecified), the survivor count is 4 of 4 (dose: 25.0 mg/kg/injection, schedule: Q04DX003 (ip), vehicle: Klucel (hydroxypropylcellulose) (HPC)) and 4 of 4 (dose: 400.0 mg/kg/injection, schedule: Q04DX003 (ip), vehicle: Klucel (hydroxypropylcellulose) (HPC)).
As to `CC(C)=CCN(CC=C(C)C)CCC(C#N)(c1cccc2ccccc12)C(C)C` (stereo unspecified), the survivor count under setting [1] was 6 of 6.
On to `CC(=O)Nc1ccc2c(ccc3cccc[n+]32)c1`, for which the survivor count (dose: 40.0 mg/kg/injection, schedule: Q01DX001 (ip), vehicle: saline) was 1 of 4; the survivor count (dose: 80.0 mg/kg/injection, schedule: Q01DX001 (ip), vehicle: saline) is on record as 0 of 4; the survivor count under setting [7] is reported as 0 of 4; the survivor count under setting [8] is recorded as 0 of 4; the survivor count under setting [10] was 0 of 4.
`CN(C)CCOc1cccc(OCCN(C)C)n1`: the survivor count reads like this: (dose: 100.0 mg/kg/injection, schedule: Q04DX003 (ip), vehicle: saline with Tween-80) 3 of 6; (dose: 200.0 mg/kg/injection, schedule: Q04DX003 (ip), vehicle: saline with Tween-80) 0 of 6; under setting [15], 0 of 6.
As for `CCOC(=O)C1C(=O)NCC1c1ccccc1` (stereo unspecified), the survivor count under setting [16] is reported as 3 of 3.
For `CC1(C)C(N2CCOCC2)CS1(=O)=O` (stereo unspecified), under setting [15], the survivor count is 1 of 6.
As to `c1ccc2c(c1)C[N+]1(Cc3ccccc3-2)CC12CCCCC2`, the survivor count runs as follows: under setting [16], 0 of 6; under setting [14], 0 of 6; under setting [5], 0 of 6.
For the molecule `CC(=O)Oc1cc2c3c(c1)CCCN3CCC2`, the survivor count is recorded as 2 of 6 under setting [12], 1 of 6 under setting [13] and 1 of 6 under setting [11].
For the molecule `NCCSC(c1ccccc1)(c1ccccc1)c1ccccc1`, the survivor count under setting [14] is on record as 0 of 6; the survivor count (dose: 300.0 mg/kg/injection, schedule: Q01DX009 (ip), vehicle: saline) is listed as 0 of 6; the survivor count under setting [5] is recorded as 0 of 6.
In the case of `CCCN(CCC)CCSC(=S)NCCOC`, the survivor count by setting is: (dose: 200.0 mg/kg/injection, schedule: Q01DX009 (ip), vehicle: acetone) 3 of 6; (dose: 400.0 mg/kg/injection, schedule: Q01DX001 (ip), vehicle: acetone) 0 of 6.
In the case of `NC(=S)N/N=C\c1nccc2c(C(=O)O)cccc12`, the survivor count (dose: 400.0 mg/kg/injection, schedule: Q04DX002 (ip), vehicle: saline) is on record as 3 of 3.
Regarding `NC(=O)c1cc(NC(=O)c2ccc(C(=O)Nc3cc(C(N)=O)cc(C4=NCCN4)c3)cc2)cc(C2=NCCN2)c1`, the T/C (dose: 32.0 mg/kg/injection, schedule: Q01DX015 (ip), vehicle: methylcellulose (MC)) was 127 % of control. Moreover, the survivor count by setting is: (dose: 250.0 mg/kg/injection, schedule: Q01DX015 (ip), vehicle: methylcellulose (MC)) 0 of 6; (dose: 500.0 mg/kg/injection, schedule: Q01DX015 (ip), vehicle: methylcellulose (MC)) 0 of 6.
Take `Cn1cnc([N+](=O)[O-])c1SC#N`: the survivor count by setting is: (dose: 30.0 mg/kg/injection, schedule: Q01DX001 (ip), vehicle: carboxymethylcellulose (CMC)) 0 of 6; (dose: 60.0 mg/kg/injection, schedule: Q01DX001 (ip), vehicle: carboxymethylcellulose (CMC)) 0 of 6; (dose: 75.0 mg/kg/injection, schedule: Q01DX001 (ip), vehicle: carboxymethylcellulose (CMC)) 0 of 6; (dose: 150.0 mg/kg/injection, schedule: Q01DX001 (ip), vehicle: carboxymethylcellulose (CMC)) 0 of 6; (dose: 300.0 mg/kg/injection, schedule: Q01DX001 (ip), vehicle: carboxymethylcellulose (CMC)) 0 of 6.
